From the supplement of paper PMC10849652
The other results are listed elsewhere or left out.

Protein sequences, listed by entry. Tags and fused reporters are not part of them. Lines headed by an entry give the natural chain unless they say otherwise; changes in a name come on top.
UniProt P05976, whole entry, looked up: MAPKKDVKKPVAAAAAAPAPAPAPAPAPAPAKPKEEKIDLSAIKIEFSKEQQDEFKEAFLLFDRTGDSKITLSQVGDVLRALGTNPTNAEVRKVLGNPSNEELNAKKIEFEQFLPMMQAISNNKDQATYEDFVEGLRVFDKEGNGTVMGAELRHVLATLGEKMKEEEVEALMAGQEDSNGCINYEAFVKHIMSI
UniProt P11586, whole entry, looked up: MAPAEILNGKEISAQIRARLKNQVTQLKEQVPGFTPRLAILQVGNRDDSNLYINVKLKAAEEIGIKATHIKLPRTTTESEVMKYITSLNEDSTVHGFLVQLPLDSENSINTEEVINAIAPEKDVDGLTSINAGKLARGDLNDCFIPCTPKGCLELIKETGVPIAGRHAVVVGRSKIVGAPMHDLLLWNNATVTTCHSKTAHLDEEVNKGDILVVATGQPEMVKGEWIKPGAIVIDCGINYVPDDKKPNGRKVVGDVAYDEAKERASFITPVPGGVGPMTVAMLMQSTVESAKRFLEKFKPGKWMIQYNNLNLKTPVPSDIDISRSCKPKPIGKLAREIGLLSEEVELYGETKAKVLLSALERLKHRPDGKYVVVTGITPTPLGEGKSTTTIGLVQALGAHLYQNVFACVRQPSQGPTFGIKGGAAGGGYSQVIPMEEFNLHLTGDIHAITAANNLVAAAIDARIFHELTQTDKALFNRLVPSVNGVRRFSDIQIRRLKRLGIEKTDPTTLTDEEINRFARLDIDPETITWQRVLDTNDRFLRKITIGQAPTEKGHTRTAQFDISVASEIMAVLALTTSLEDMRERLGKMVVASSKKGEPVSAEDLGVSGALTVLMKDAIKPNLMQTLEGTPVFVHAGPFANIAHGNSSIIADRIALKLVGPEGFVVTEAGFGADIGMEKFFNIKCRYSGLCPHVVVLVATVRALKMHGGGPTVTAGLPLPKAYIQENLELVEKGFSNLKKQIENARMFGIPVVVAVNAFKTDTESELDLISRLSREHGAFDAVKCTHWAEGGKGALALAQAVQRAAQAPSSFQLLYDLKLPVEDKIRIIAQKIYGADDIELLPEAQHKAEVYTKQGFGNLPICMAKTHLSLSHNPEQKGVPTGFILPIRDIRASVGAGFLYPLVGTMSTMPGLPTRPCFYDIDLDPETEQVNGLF
UniProt Q13126: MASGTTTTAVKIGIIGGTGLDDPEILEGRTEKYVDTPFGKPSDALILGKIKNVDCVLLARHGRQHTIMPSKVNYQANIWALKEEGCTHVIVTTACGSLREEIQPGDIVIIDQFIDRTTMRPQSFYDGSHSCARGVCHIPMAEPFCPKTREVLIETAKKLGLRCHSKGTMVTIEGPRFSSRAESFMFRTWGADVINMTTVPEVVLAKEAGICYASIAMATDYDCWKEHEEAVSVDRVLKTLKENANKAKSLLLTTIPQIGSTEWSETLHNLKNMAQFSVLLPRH
UniProt P03897, whole entry, looked up: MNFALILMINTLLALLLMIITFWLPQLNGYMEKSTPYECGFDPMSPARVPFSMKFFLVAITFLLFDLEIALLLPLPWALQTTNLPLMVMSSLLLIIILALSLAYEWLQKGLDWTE
UniProt Q765P7: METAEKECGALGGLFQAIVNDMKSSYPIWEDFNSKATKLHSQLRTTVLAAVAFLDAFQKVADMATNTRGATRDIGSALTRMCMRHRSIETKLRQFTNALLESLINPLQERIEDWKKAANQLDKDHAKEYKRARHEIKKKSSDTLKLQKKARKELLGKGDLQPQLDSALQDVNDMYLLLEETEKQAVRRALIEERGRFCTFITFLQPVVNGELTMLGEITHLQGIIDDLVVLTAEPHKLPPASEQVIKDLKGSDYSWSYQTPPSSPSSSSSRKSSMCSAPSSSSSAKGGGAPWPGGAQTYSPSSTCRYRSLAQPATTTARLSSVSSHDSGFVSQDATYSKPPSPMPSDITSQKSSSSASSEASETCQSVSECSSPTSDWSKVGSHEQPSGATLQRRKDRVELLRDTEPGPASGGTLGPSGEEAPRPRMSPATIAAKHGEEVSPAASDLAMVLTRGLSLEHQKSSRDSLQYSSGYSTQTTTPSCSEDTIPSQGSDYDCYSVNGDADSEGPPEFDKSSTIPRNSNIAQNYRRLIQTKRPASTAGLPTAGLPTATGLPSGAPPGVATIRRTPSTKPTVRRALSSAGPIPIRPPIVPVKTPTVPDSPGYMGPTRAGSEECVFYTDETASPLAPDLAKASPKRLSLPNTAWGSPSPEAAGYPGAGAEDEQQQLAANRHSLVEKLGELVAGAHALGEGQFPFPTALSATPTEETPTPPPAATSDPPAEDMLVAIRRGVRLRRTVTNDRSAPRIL
UniProt P13995: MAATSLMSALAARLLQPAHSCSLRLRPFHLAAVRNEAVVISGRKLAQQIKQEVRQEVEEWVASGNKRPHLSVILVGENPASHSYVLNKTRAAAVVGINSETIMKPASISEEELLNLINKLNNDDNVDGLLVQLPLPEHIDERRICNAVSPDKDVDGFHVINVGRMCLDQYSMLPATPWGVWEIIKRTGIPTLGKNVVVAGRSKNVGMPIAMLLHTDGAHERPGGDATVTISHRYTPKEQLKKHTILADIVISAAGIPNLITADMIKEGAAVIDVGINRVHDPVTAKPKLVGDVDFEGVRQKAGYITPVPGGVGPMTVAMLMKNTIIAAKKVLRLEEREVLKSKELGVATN
UniProt Q8TAX7: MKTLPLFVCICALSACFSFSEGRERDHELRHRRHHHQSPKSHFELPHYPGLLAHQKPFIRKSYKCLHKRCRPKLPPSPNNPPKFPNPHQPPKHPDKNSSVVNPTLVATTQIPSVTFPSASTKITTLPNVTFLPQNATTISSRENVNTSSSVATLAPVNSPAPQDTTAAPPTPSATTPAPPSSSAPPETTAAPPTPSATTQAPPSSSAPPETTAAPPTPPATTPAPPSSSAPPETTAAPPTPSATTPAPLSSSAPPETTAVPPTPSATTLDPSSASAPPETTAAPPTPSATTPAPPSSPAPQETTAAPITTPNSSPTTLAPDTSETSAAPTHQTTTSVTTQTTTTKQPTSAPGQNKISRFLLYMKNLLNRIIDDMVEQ
UniProt P03886, whole entry, looked up: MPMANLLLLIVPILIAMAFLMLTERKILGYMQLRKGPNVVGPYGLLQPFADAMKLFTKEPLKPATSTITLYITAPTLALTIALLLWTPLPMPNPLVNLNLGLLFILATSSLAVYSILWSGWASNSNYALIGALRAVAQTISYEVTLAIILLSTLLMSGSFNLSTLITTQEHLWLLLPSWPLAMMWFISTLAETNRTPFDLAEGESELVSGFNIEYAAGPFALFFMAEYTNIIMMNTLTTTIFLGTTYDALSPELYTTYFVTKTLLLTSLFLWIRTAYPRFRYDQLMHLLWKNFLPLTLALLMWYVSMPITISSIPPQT
UniProt P12829: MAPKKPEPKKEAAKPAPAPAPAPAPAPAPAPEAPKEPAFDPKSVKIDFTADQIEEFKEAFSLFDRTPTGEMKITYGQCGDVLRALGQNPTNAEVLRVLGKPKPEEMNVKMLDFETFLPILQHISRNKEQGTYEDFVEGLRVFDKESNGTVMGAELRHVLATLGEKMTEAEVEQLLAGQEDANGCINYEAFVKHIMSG
UniProt Q9Y2K3: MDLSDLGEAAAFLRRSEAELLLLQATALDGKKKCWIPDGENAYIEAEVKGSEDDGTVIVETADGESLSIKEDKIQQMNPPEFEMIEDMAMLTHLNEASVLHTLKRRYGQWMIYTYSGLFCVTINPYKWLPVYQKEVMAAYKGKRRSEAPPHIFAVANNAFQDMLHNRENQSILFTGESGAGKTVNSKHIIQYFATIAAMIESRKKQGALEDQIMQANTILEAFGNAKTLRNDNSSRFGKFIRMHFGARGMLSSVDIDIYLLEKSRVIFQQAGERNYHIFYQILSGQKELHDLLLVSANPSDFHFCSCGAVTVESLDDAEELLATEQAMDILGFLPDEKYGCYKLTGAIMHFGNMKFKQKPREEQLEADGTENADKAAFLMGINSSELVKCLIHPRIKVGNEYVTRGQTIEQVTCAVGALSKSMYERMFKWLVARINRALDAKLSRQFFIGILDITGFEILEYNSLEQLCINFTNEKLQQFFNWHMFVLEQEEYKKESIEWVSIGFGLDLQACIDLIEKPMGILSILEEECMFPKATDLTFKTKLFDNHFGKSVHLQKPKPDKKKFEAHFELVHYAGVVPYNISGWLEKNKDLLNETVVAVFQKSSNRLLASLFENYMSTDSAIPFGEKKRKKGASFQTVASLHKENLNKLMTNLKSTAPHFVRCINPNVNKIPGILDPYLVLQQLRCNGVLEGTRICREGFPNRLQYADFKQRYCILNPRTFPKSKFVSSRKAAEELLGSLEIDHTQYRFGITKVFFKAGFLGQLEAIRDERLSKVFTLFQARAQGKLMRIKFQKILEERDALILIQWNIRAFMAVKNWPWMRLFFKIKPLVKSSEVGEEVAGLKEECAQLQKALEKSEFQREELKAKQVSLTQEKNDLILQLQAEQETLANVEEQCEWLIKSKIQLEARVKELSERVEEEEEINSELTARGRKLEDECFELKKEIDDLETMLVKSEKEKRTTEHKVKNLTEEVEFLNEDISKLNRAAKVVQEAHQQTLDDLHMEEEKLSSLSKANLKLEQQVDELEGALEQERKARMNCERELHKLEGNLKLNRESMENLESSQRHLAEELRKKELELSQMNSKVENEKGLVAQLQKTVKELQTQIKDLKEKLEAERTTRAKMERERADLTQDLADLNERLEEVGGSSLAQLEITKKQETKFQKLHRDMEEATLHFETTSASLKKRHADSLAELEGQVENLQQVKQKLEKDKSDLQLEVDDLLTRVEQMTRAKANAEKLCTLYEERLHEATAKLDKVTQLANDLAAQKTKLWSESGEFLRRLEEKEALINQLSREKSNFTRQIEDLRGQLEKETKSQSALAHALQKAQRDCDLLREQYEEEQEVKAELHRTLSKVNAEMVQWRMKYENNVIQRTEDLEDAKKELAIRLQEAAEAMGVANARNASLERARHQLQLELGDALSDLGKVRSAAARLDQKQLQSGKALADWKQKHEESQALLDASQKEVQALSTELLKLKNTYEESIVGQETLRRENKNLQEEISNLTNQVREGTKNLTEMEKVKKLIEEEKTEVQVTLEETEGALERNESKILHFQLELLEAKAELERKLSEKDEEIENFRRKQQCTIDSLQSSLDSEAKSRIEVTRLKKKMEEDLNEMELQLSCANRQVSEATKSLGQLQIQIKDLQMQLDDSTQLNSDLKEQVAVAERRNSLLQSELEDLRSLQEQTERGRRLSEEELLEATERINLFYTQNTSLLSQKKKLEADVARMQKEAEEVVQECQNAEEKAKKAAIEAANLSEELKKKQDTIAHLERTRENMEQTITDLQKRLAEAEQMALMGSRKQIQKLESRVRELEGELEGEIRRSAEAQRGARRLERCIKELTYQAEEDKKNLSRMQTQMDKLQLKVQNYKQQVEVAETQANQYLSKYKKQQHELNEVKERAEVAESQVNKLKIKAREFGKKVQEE
UniProt P00403, whole entry, looked up: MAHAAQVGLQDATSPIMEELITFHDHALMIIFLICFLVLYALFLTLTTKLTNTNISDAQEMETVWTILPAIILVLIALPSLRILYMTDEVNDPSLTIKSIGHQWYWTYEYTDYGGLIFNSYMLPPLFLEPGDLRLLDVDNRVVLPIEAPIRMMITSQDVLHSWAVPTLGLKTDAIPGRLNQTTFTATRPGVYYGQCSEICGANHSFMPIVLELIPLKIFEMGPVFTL
UniProt Q9C0I1: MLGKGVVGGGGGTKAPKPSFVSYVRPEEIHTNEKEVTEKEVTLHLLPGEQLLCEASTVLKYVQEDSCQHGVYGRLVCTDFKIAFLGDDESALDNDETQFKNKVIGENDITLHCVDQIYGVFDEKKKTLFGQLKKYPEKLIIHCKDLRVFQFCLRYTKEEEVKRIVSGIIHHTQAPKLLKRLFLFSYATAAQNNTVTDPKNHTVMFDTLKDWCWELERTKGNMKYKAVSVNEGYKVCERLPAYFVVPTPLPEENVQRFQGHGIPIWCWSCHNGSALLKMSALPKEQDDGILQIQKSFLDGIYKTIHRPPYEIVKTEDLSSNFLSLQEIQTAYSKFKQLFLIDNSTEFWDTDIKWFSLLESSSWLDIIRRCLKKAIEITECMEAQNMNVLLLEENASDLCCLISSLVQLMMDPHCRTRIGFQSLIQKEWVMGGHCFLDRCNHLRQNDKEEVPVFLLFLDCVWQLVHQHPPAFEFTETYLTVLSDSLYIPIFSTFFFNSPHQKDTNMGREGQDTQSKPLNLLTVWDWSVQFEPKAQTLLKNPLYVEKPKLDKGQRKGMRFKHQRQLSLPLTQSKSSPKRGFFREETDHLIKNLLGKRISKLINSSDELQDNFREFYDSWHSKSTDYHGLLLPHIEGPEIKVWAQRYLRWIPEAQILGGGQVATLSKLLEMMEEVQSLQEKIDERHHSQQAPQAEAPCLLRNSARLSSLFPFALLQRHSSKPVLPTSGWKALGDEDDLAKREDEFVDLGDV
UniProt P13640: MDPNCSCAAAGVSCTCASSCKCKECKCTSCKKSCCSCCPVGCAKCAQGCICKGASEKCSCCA

Key:
Assay in all cases: log2 fold change, soluble protein after heating vs DMSO (PISA); higher = thermal stabilisation; K562 cells, 10 uM, 30 min; active = over 0.2 and 3.5 SD of the protein, either way, in both replicates (recomputed)
[1] = compound: C1=CC=C(C=C1)[C@H](COC2=CC3=C(C=C2)NC(=O)N3)NC(=O)C4=CC=CN(C4=O)CC5=CC(=C(C=C5)F)F
Outline: (§1)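 Thermal stability values are relative to control samples and come from duplicates. They are expressed as log2 fold changes. For measurement, K562 cells (2×10^6 cells/mL) received 10 μM compound for 30 min, and aliquots were heated for 3 min over 48°C-58°C, pooled, and extracted at 4°C in PBS with 0.5% NP-40. Soluble protein, the supernatant after 21,000xg for 90 min, was quantified by TMTpro 16plex LC-MS/MS with equalised channel sums.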

[2] = compound: CC1=C(SC2=C1C(=N[C@H](C3=NN=C(N32)C)CC(=O)N)C4=CC=C(C=C4)Cl)C
Outline: as §1

[3] = compound: CC1=C2C(=CC=C1)N=C(N(C2=O)C3=CC=CC=C3C)CN4C=NC5=C(N=CN=C54)N
Outline: as §1

[4] = compound: Cc1sc2c(c1C)C(c1ccc(Cl)cc1)=N[C@@H](CC(=O)OC(C)(C)C)c1nnc(C)n1-2
Outline: as §1

[5] = compound: c1ccc([C@@H]2C[C@H]2NC2CCNCC2)cc1
Outline: as §1

Measured: log2 fold change

MTMR9 (UniProt Q96QG7)
inactive: [1] -0.011 | [2] 0.123 | [3] 0.09 | [4] 0.041 | [5] -0.041

MYL1 (UniProt P05976)
inactive: [1] 0.041

MTHFD1 (UniProt P11586)
inactive: [1] -0.059 | [2] 0.024 | [3] 0.018 | [4] -0.013 | [5] -0.019

MRPS6 (UniProt P82932)
inactive: [1] -0.084 | [2] 0.012 | [3] 0.052 | [4] 0.052 | [5] -0.022

MTAP isoform 2 (UniProt Q13126)
inactive: [1] -0.35

MRPS18A isoform 2 (UniProt Q9NVS2)
inactive: [1] 0 | [2] -0.122 | [3] 0.013 | [4] 0.025 | [5] -0.094

MRPS7 (UniProt Q9Y2R9)
inactive: [1] -0.006 | [2] -0.046 | [3] -0.049 | [4] 0.013 | [5] -0.014

Retrieved one by one from the entries so far, 2 records:
MTAP isoform 2 (UniProt Q13126)
inactive: [1] -0.35

MRPS7 (UniProt Q9Y2R9)
inactive: [1] -0.006 | [2] -0.046 | [3] -0.049 | [4] 0.013 | [5] -0.014

Remaining list, next part.

MYCBP2 (UniProt O75592)
inactive: [1] 0.048 | [2] 0.244 | [3] 0.273 | [4] 0.313 | [5] -0.063

MTMR10 (UniProt Q9NXD2)
inactive: [1] -0.239

MYH14 isoform 2 (UniProt Q7Z406)
inactive: [1] -0.006 | [2] -0.002 | [3] -0.021 | [4] 0.004 | [5] 0.01

MTREX (UniProt P42285)
inactive: [1] -0.031 | [2] 0.059 | [3] 0.063 | [4] -0.003 | [5] -0.001

MT-ND3 (UniProt P03897)
inactive: [1] -0.001

MSH3 (UniProt P20585)
inactive: [1] 0.008 | [2] 0.085 | [3] 0.052 | [4] -0.028 | [5] -0.087

MTSS2 (UniProt Q765P7)
inactive: [1] 0.008 | [2] 0.132 | [3] 0.007 | [4] 0.027 | [5] 0.029

MYH2 (UniProt Q9UKX2)
inactive: [1] 0.11

MYO1C (UniProt O00159)
inactive: [1] -0.129 | [2] 0.072 | [3] 0.109 | [4] 0.036 | [5] -0.103

MTHFD2 (UniProt P13995)
inactive: [1] -0.028 | [2] -0.01 | [3] 0.012 | [4] 0.012 | [5] 0.003

MRPS35 (UniProt P82673)
inactive: [1] -0.011 | [2] -0.03 | [3] -0.033 | [4] 0.143 | [5] -0.004

MUC7 (UniProt Q8TAX7)
inactive: [1] -0.037

MT-ND1 (UniProt P03886)
inactive: [1] -0.024 | [2] -0.12 | [3] -0.24 | [4] -0.102 | [5] 0.177

MYL4 (UniProt P12829)
inactive: [1] 0.033 | [2] 0.031 | [3] 0.037 | [4] -0.046 | [5] 0.002

MT-CO1 (UniProt P00395)
inactive: [1] 0.024 | [2] 0.108 | [3] -0.073 | [4] -0.179 | [5] 0.1

MYH15 (UniProt Q9Y2K3)
inactive: [1] 0.574

MT-CO2 (UniProt P00403)
inactive: [1] -0.035 | [2] -0.005 | [3] -0.016 | [4] 0.035 | [5] 0.035

MYO18A (UniProt Q92614)
inactive: [1] 0.093 | [2] -0.042 | [3] 0.021 | [4] 0.054 | [5] 0

MRTO4 (UniProt Q9UKD2)
inactive: [1] 0.023 | [2] -0.246 | [3] -0.048 | [4] 0.018 | [5] 0.009

MRPS31 (UniProt Q92665)
inactive: [1] -0.042 | [2] 0.028 | [3] 0.021 | [4] 0.044 | [5] -0.031

MTMR12 (UniProt Q9C0I1)
inactive: [1] 0.014 | [2] 0.083 | [3] 0.046 | [4] 0.006 | [5] 0.026

MT1G (UniProt P13640)
inactive: [1] 0.003 | [2] -0.045 | [3] -0.124 | [4] 0.053 | [5] 0.117
